Patent US20220331267A1, “METHODS AND COMPOSITIONS FOR TREATMENT OF DEMYELINATING DISORDERS” (Rush University Medical Center, priority 2019, published 2022)
The name of at least one read-out is uncertain. Some entries share one result that the patent states for a list of compounds.

These molecules were tested against T1, PPARβ (Mus musculus, UniProt P35396). Settings: increasing doses.
T1 sequence (P35396 1-440): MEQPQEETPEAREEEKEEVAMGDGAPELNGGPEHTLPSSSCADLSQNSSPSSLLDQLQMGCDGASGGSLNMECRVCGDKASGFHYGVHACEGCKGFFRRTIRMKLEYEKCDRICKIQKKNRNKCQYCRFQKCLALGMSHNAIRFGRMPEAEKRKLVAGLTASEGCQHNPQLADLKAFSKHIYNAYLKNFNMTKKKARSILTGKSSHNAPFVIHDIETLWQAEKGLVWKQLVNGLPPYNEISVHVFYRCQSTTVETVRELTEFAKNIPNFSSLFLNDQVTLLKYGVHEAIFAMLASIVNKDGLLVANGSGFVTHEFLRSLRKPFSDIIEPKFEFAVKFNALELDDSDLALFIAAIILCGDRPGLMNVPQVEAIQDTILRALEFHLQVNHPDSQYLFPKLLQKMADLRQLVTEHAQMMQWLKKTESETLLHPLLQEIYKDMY

**Q.** Which “ΔTm (shift of melting curve of PPARβ)” value does the source give for CCCCCCCCCCCCCCCC(=O)OC [MePA, Methyl palmitate] here?
**A.** Its value is “more than 2 °C”.

**Q.** For CC(C)(C)c1cccc(C(C)(C)C)c1 [DBB, 1,3-Di-tertbutyl benzene], which “ΔTm (shift of melting curve of PPARβ)” value is on record?
**A.** The value was “more than 2 °C”.

Same assay, conditions: melting temperature shift of PPARβ protein, Table 3 screen

**Q.** With CC(C)(C)c1cccc(C(C)(C)C)c1O [2,6-DB Phenol, 2,6-Di-tertbutyl-Phenol] as the molecule, how does the ΔTm read?
**A.** Its ΔTm is 6.67 °C.

**Q.** With CC(C)(C)c1cccc(C(C)(C)C)c1 [DBB, 1,3-Di-tertbutyl benzene] as the molecule, how does the ΔTm read?
**A.** Its ΔTm is 4.04 °C.

**Q.** For CC(C)c1ccc(O)c(C(C)C)c1 [2,4-DI Phenol, 2,4-Di-isopropyl Phenol], which ΔTm is on record?
**A.** The ΔTm was 2.32 °C.

**Q.** Which ΔTm does the source give for CC(C)(C)c1ccc(O)cc1C(C)(C)C [3,4-DB Phenol, 3,4-Di-tertbutyl-Phenol] here?
**A.** Its ΔTm is 8.25 °C.
